For some assays here: Negatives hold for the conditions tested. Protein sequences can lack the tags named with them.
Assays:
Assay in all cases: EMSA
[1] = molecular target: T1, IutR1 (Synechocystis sp. PCC 6803) (UniProt P72595); conditions: tbdt: 10 mM Tris-HCl pH 7.5, 50 mM KCl, 1 mM DTT, 0.1% BSA, 5% glycerol, 30 min 30 C, poly(dI-dC) competitor, furA/perR: 10 mM Tris-HCl pH 7.5, 50 mM KCl, 5 mM MgCl2, recombinant protein, residues 1-326, protein details: GST (pET41a), probe letters rebuilt from the primers and the genome
T1 sequence (looked up): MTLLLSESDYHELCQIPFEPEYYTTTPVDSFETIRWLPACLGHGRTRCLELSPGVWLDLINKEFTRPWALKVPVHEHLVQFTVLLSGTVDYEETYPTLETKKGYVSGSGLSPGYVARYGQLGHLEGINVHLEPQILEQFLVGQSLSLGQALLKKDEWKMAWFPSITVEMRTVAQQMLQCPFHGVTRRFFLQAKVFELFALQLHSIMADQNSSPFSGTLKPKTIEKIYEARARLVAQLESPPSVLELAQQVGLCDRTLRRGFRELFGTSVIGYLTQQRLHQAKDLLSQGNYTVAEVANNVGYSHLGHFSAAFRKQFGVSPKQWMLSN

[2] = molecular target: T2, IutR2 (Synechocystis sp. PCC 6803) (UniProt P72600); conditions: tbdt: 10 mM Tris-HCl pH 7.5, 50 mM KCl, 1 mM DTT, 0.1% BSA, 5% glycerol, 30 min 30 C, poly(dI-dC) competitor; furA/perR: 10 mM Tris-HCl pH 7.5, 50 mM KCl, 5 mM MgCl2; recombinant protein; residues 1-346; protein details: GST (pET41a); label: 5' biotin; probe letters rebuilt from the primers and the genome
T2 sequence (looked up): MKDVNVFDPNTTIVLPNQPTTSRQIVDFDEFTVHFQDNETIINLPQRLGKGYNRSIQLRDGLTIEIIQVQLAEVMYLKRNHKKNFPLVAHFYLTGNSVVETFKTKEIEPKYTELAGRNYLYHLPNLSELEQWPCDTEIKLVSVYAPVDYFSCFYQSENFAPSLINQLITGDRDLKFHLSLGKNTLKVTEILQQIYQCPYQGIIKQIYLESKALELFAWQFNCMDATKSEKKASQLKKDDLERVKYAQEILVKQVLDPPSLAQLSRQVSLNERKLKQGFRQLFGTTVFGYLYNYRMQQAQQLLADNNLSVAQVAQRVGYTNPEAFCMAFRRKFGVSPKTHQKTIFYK

[3] = molecular target: T3, IutR3 (Synechocystis sp. PCC 6803) (UniProt P72608); conditions: tbdt: 10 mM Tris-HCl pH 7.5, 50 mM KCl, 1 mM DTT, 0.1% BSA, 5% glycerol, 30 min 30 C, poly(dI-dC) competitor; furA/perR: 10 mM Tris-HCl pH 7.5, 50 mM KCl, 5 mM MgCl2; recombinant protein; residues 1-330; protein details: GST (pET41a); label: 5' biotin; probe letters rebuilt from the primers and the genome
T3 sequence (looked up): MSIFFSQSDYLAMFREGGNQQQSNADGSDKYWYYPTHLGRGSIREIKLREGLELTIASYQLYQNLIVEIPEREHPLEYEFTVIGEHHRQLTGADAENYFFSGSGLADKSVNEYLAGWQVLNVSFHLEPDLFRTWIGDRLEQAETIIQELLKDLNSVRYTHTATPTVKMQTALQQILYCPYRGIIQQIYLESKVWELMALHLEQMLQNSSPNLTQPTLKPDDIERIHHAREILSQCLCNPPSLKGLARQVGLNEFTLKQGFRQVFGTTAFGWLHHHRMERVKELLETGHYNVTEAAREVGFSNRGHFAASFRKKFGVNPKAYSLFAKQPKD

Sequence	binding result ([1]; 5 mM Mg2+)	binding result ([1]; label: 5' biotin)	binding result [2]	binding result [3]
GTTCTATGGGGGCGCTTAGAAGCAGTCTGGGCGATGGGATCCATCATAGTCCCTTGGCTCAGCAGTTGCAATAGTGGAGTCTTATTGAGAATAGATCCTAGAAAAAGTTTTATTTATCTTCCCCCGTCTGAAAATCTGAACCATGCGACCTTCCGCCCTTATTCCCCCCCAGCGTTATTTTGCCTACCTAACGTGGACCGATATTGAAGCTCTGCCGGATAAGGACAAAACCATTATTATTCAGCCCCTGGGTTCCATTGAACAGCATGGTCCCCATTTACCATTGGTGGTGGATGCAGCCA (double strand) [furA promoter]	binds	–	–	–
GGTCATGGTTACCTCTGGCTATCTAAACGACTAAATTTTTCTGAGGGGATGGAGCATTTTTCATCAATGCTTGCCCTCTTTTCTCAGAATAGTTCTGAGATAGAAATAAGTCAAGCTTAAAAATTAATATTTTTTTTATAATTATTCTATCTAATAGTCCTTCTAGAAAATGTTAAGCTAGATAGACTATAGCCAAACAGTGCGGATCATTATCATTGGTGTGCTGGCCAGGACCCATGGTTCCTGAGGTTTGCCCAGAGGGACTTACCCATCAAAAATCAGCGAATGTTGCCGCACCGATGTTAGGAGGAACAGT (double strand) [perR promoter]	binds	–	–	–
GCGTCGACGGGAATTATCCAACAGATTTATCTAGAAAGTAAAGTCTGGGAACTCATGGCTCTCCACCTTGAGCAGATGCTACAAAATTCCTCTCCCAACTTGACCCAACCAACCCTTAAACCAGATGATATTGAACGAATTCACCATGCCAGAGAAATTTTATCCCAGTGCCTCTGTAACCCACCTTCCTTAAAAGGATTGGCTCGTCAGGTGGGCTTGAATGAATTTACTCTTAAACAGGGTTTCCGCCAAGTTTTTGGAACTACCGCATTCGGTTGGTTGCACCATCACCGTATGGAAAGGGTCAAAGAATTACTAGAAACGGGCCATTACAACGTCACTGAAGCTGCTCGGGAAGTGGGGTTTTCCAATCGGGGACATTTTGCCGCCTCGTTCCGCAAAAAGTTTGGCGTTAATCCTAAAGCCTATTCATTGTTTGCCAAACAACCTAAAGACTAAAAAATTCCAATTTAGGATCAAAATATTCCCTCCACTGATCAAAGTGATTGCCCGCCGTCCCCGTCTTACCGGTAAAGTATTTGAGAATTAGTTGCAGTTAAGGTTGTTCCTCCTGTGTTATCAGATGCCATGGCCGGCTGTCTCAACTAAGAATTTCAAGCTTTGGGTACCGCGG (double strand) [tbdt4 promoter]	–	binds	binds	binds
GCGAGCGGTACCTTACTGATAATTAATGGATATATTCTAGGGGAAAGCCAAAATGTATTTCTTTGTAGGACGGACTTTTTTCTTTGTGAAACGGACTTTTTAGATCATAACTTTTCTTCTGTCAGAATGAAAAACTGCTTACTACTATTTGTAGAAAATTGTCTTTTGATGGGTTTTGGGGCTAACTCCAAATTTTCGTCTAAATGCCATGCAAAAAGCTTCTGGATTGGTATATCCTACCCTTTGTGCTACCTGGGCCACGGATAAGTTATTATCTGCTAATAATTGCTGAGCCTGTTGCATGCGATAATTATACAGATAACCAAATACGGTCGTGCCAAATAGTTGACGAAAGCCTTGTTTTAGCTTACGCTCATTTAAGCTAACTTGTCGAGATAACTGTGCCAAGGAAGGAGGATCAAGTACTTGTTTGACCAAGATTTCCTGTGCATATTTCACTCTTTCTAAATCGTCTTTTTTTAATTGAGATGCTTTTTTTTCTGATTTAGTAGCATCCATACAATTAAATTGCCAGGCAAATAATTCTAAAGCCTTACTTTCTAAATAAATTTGTTTAATTATGCCTTGATAGGGACATTGATAAATTTGCTGTAATATCTCAGTGACTTTAAGTGTGTTTTTACCTAGTGATAAGTGGAACTTTAAATCACGATCGCCTGTGATTAATTGGTTAATTAAGCTAGGAGCAAAGTTTTCACTTTGATAAAAACAACTGAAATAATCAACAGGAGCATAAACACTAACTAATTTTATTTCAGTATCACATGGCCATTGCTCGAGGTCGACATA (double strand) [tbdt3 promoter]	–	binds	no binding	no binding
GCAGGTACCTTTAACCGGGAGAGACTATCAATTACTCAGCATCCACTGTTTAGGGCTGACACCAAACTGTTTGCGAAACGCCGCGGAGAAGTGGCCTAAGTGGCTATAACCCACGTTGTTAGCGACTTCGGCGACAGTGTAATTGCCCTGGGAGAGCAGATCTTTGGCCTGGTGAAGACGTTGTTGGGTCAGATAACCGATTACAGAGGTGCCAAACAGTTCCCGAAAACCACGGCGGAGGGTACGATCACATAACCCCACCTGCTGGGCCAACTCCAAAACGGAAGGAGGGCTTTCCAGTTGGGCAACTAGTCTGGCTCTCGCTTCGTAGATCTTCTCAAGTCGACTTC (double strand) [tbdt1 promoter]	–	binds	binds	no binding
